The list shows a part of the results.
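Note: competitive profiling in live THP-1 cells: cysteine peptides tagged with an iodoacetamide desthiobiotin (IA-DTB) probe, intensity after compound treatment relative to DMSO-treated cells.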

Sequences of proteins named here, by UniProt entry; tags and fusion partners are left off. A change or cut given only in a name is not applied to a line headed by its entry.
UniProt Q86V21: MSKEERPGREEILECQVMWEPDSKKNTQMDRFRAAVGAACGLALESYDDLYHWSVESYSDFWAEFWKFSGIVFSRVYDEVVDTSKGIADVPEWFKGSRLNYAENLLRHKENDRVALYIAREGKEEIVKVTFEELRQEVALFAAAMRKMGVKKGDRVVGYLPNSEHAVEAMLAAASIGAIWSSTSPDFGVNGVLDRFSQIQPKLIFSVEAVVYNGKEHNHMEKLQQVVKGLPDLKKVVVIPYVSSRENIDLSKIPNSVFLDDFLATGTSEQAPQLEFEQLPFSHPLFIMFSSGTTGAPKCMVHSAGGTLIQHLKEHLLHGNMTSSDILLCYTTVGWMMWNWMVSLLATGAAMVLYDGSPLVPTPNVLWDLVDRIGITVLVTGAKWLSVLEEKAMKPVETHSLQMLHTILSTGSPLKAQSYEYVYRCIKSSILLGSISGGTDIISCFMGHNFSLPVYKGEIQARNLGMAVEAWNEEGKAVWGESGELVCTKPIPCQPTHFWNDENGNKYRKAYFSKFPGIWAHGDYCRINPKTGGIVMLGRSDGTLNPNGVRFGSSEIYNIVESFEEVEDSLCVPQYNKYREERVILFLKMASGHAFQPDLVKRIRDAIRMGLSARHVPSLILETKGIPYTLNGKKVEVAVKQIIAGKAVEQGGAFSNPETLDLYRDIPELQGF
UniProt Q9H3P7: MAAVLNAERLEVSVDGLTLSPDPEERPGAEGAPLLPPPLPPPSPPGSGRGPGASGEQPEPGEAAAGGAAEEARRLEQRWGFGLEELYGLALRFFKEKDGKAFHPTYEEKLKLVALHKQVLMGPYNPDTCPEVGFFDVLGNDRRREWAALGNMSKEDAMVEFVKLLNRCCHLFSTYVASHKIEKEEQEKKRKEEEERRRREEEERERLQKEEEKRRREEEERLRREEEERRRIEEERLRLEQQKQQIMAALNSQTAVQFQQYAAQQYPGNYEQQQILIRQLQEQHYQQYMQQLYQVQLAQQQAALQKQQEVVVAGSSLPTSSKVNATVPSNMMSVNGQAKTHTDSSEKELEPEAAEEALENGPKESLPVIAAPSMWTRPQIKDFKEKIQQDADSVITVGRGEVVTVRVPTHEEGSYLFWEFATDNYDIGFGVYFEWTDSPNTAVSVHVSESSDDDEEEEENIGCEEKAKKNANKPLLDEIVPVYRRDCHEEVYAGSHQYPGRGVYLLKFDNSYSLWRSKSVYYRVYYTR
UniProt P53396: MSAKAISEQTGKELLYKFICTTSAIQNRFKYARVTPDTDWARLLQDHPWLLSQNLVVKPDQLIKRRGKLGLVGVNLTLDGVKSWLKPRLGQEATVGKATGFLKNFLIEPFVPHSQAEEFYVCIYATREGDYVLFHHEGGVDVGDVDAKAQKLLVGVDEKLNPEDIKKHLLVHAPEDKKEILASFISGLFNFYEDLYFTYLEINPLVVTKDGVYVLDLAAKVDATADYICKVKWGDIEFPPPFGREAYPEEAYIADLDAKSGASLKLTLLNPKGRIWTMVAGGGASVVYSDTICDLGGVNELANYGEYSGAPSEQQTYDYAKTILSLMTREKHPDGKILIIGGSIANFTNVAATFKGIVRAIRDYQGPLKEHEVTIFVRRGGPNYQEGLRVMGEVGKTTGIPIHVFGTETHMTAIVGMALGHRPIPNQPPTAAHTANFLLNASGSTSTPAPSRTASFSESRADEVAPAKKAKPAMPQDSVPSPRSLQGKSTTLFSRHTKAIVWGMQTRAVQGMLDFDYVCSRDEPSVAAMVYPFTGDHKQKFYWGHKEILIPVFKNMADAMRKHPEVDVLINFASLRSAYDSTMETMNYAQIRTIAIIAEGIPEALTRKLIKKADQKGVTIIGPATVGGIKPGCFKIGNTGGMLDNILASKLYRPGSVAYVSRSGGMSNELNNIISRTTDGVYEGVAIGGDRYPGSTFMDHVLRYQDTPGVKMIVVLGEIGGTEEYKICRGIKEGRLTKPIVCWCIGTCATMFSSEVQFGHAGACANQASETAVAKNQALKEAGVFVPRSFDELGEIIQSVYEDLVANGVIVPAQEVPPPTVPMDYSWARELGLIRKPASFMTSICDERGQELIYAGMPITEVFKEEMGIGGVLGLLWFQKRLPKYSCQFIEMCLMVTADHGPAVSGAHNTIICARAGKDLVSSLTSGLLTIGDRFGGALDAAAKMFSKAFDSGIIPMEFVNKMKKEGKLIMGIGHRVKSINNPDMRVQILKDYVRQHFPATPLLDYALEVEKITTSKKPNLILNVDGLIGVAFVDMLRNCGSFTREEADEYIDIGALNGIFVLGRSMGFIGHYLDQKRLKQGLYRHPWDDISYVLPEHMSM
UniProt Q99798: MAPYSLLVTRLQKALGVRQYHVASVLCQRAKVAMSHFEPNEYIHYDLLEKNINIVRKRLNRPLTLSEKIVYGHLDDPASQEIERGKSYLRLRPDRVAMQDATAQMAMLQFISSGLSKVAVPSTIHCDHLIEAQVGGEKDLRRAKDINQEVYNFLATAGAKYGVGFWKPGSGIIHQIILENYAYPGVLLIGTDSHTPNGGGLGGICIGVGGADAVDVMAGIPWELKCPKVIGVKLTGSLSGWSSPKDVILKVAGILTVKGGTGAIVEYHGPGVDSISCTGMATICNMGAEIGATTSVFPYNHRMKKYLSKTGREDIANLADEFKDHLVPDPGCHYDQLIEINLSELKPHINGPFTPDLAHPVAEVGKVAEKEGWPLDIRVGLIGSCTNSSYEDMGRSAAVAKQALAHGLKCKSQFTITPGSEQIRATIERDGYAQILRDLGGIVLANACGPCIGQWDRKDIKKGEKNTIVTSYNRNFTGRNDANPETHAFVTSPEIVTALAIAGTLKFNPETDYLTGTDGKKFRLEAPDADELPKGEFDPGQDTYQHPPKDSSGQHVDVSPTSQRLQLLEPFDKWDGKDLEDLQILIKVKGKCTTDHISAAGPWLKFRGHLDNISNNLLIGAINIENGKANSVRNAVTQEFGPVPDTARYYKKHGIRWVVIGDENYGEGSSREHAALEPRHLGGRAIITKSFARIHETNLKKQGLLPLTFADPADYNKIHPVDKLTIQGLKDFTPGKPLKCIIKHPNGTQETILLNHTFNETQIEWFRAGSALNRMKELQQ
UniProt P09110: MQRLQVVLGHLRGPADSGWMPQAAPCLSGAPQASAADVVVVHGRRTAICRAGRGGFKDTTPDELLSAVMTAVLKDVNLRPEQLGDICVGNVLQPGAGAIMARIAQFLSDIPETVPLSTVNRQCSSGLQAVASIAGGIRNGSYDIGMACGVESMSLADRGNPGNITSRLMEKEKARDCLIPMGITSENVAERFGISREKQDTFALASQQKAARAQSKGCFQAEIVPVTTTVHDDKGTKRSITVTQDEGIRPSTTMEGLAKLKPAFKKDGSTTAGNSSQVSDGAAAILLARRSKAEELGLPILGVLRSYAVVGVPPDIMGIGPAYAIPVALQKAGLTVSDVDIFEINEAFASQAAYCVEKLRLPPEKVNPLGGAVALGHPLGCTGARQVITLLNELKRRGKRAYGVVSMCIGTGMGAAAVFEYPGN
UniProt P49748: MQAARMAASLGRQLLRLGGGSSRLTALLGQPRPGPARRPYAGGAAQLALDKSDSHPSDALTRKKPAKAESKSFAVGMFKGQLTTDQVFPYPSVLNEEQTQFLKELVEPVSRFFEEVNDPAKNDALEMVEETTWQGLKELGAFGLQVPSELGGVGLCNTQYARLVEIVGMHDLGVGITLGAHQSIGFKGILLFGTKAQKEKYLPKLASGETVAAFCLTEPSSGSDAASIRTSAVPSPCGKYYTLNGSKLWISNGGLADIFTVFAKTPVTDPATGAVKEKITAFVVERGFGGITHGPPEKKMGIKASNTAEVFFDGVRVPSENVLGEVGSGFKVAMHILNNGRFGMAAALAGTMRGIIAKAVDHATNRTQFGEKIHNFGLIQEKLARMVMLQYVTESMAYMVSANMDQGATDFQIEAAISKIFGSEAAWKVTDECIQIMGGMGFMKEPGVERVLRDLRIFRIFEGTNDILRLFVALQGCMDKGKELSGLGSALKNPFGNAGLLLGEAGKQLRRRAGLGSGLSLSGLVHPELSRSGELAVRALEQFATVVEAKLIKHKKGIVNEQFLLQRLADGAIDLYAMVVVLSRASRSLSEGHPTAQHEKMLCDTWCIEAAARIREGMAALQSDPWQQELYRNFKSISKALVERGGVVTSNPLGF
UniProt Q9BWD1: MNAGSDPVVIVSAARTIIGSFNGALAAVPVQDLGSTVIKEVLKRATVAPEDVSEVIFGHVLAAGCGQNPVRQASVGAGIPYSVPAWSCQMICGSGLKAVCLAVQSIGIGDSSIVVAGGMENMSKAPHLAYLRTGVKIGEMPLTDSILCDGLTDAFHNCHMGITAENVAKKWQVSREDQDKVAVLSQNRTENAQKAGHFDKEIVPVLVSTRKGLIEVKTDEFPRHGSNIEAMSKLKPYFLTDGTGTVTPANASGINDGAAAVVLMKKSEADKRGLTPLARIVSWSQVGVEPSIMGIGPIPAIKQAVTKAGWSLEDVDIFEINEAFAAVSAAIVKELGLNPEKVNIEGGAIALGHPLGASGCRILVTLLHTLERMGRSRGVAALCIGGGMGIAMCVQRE
UniProt Q2M2I8: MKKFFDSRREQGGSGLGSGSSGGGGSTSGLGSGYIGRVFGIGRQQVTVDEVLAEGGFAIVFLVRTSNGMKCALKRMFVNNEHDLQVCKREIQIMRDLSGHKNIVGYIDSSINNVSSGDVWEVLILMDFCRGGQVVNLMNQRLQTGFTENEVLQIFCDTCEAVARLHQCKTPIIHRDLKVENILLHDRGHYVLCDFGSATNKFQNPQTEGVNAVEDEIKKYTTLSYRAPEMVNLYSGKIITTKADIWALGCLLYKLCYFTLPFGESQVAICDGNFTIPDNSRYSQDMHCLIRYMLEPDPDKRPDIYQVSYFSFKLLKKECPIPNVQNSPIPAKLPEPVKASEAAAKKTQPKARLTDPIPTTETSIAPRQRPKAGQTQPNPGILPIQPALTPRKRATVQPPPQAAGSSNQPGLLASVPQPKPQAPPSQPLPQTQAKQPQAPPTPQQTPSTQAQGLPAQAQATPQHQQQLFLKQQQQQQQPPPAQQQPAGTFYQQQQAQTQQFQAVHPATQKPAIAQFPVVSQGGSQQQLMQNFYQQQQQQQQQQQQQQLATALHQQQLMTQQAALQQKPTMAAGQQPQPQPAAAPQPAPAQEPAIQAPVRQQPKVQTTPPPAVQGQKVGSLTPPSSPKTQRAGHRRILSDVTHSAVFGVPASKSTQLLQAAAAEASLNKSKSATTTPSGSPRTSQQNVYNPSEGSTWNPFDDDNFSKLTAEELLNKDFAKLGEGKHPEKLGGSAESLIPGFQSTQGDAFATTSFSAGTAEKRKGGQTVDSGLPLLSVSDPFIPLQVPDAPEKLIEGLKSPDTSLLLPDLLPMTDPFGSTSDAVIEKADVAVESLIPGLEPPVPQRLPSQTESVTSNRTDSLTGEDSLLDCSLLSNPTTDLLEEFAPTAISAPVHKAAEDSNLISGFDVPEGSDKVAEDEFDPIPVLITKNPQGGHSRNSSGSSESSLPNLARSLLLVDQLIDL
UniProt P21399: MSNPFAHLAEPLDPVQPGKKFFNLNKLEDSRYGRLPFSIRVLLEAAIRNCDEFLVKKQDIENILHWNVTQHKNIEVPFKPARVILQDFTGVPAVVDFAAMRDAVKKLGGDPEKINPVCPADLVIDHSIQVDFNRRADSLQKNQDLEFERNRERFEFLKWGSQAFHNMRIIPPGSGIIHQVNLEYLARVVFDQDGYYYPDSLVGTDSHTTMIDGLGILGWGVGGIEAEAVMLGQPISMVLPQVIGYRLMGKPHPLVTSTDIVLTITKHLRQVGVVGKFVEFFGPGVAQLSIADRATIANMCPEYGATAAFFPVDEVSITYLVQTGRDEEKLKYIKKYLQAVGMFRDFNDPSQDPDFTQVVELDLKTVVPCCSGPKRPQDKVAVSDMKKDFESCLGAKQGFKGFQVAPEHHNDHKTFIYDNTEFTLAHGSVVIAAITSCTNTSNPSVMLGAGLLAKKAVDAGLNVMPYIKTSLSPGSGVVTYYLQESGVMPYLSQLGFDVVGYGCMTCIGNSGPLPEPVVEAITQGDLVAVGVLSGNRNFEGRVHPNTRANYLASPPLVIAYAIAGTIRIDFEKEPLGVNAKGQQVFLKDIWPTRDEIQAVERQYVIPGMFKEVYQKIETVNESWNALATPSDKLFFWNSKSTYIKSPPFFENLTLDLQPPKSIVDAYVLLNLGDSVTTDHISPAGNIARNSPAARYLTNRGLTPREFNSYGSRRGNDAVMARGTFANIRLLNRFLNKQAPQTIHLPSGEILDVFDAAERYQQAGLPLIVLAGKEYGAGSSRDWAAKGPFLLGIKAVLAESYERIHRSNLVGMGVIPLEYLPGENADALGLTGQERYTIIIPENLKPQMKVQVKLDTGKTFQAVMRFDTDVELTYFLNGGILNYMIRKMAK

Compound in this test: Cc1cc(ccc1-c1ccccc1)C(=O)N1CCCN(CC1)C(=O)CCl [compound 10]
In words: probe-labelled cysteine peptide fold change vs DMSO (competition) (log2 fold change); higher = less target engagement (more negative = stronger competition). To be noted: 10 µM; THP-1; incubation time: 4 h.
For the target “ABCE1_P61221_201_TQAIVCQQLDLTHLK (UniProt P61221)”, the “probe-labelled cysteine peptide fold change” value was -0.0707.
Take “ACACA_Q13085_1470_TDCNHIFLNFVPTVIMDPSK (UniProt Q13085)”: the “probe-labelled cysteine peptide fold change” value was 0.195.
On to “AACS_Q86V21_525_FPGIWAHGDYCR (UniProt Q86V21)”, for which the “probe-labelled cysteine peptide fold change” value was 0.162.
Under “ACBD3_Q9H3P7_169_CCHLFSTYVASHK (UniProt Q9H3P7)” stands 0.173; under “ACLY_P53396_519_AVQGMLDFDYVCSR (UniProt P53396)”, 0.0361; under “ACO2_Q99798_126_VAVPSTIHCDHLIEAQVGGEK (UniProt Q99798)”, -0.0826.
Consider ACAA1_P09110_49_RTAICR (UniProt P09110), for which the “probe-labelled cysteine peptide fold change” value was -0.0652.
The value for “AARS2_Q5JTZ9_300_HSTYDTDLFSPLLNAIQQGCR (UniProt Q5JTZ9)” was 0.101; that for “ACOT11_Q8WXI4_529_RGETLCSGFCLWR (UniProt Q8WXI4)” was 0.184; that for “ACACA_Q13085_1396_NFDLTAIPCANHK (UniProt Q13085)” was -0.104.
Take “ABCF2_Q9UG63_388_TLSFYFPPCGK (UniProt Q9UG63)”: the “probe-labelled cysteine peptide fold change” value turned out to be 0.0551.
Consider “ABCE1_P61221_65_KCPFGALSIVNLPSNLEK (UniProt P61221)”, for which the “probe-labelled cysteine peptide fold change” value is -0.091.
As for “ACACA_Q13085_1009_CVFALR (UniProt Q13085)”, the “probe-labelled cysteine peptide fold change” value was found to be 0.157.
Under “ACAP2_Q15057_53_AFCVANK (UniProt Q15057)” stands -0.11; under “ACADVL_P49748_477_LFVALQGCMDK (UniProt P49748)”, -0.223; under “ACADVL_P49748_603_MLCDTWCIEAAAR (UniProt P49748)”, -0.105.
Under “AARS_P49588_901+903_ITCLCQVPQNAANR (UniProt P49588)” stands 0.298; under “ACAD9_Q9H845_613_RAYICAHPLDR (UniProt Q9H845)”, -0.264.
With “ACLY_P53396_1040_NCGSFTREEADEYIDIGALNGIFVLGR (UniProt P53396)”, the “probe-labelled cysteine peptide fold change” value was -0.184.
Turning to “ACAT2_Q9BWD1_360_VNIEGGAIALGHPLGASGCR (UniProt Q9BWD1)”, the “probe-labelled cysteine peptide fold change” value was 0.232.
As for “ACO2_Q99798_451_DLGGIVLANACGPCIGQWDRK (UniProt Q99798)”, the “probe-labelled cysteine peptide fold change” value is -0.125.
The value for “ACAT1_P24752_413_QGEYGLASICNGGGGASAMLIQKL (UniProt P24752)” was -0.296.
On to “AAK1_Q2M2I8_319_KECPIPNVQNSPIPAK (UniProt Q2M2I8)”, for which the “probe-labelled cysteine peptide fold change” value is -0.172.
As for “ABCF1_Q8NE71_741_FGLESHAHTIQICK (UniProt Q8NE71)”, the “probe-labelled cysteine peptide fold change” value was 0.208.
The value for “ACAT2_Q9BWD1_65_RATVAPEDVSEVIFGHVLAAGCGQNPVR (UniProt Q9BWD1)” was -6.94e-05.
Under “AACS_Q86V21_15_EERPGREEILECQVMWEPDSKK (UniProt Q86V21)” stands -0.237.
The value for “ABHD10_Q9NUJ1_229_EAEHHCLLHSPIPVNCPIR (UniProt Q9NUJ1)” was 0.0491; that for “AAK1_Q2M2I8_159_LQTGFTENEVLQIFCDTCEAVAR (UniProt Q2M2I8)” was -0.00759; that for “ABHD11_Q8NFV4_135_NHGDSPHSPDMSYEIMSQDLQDLLPQLGLVPCVVVGHSMGGK (UniProt Q8NFV4)” was 0.196.
For the target “ABHD12_Q8N2K0_52_CAADAGMK (UniProt Q8N2K0)”, the “probe-labelled cysteine peptide fold change” value was -0.21.
The value for “ACOT2_P49753_300_GGELCLSMASFLK (UniProt P49753)” was -0.0218; that for “ACO1_P21399_118_INPVCPADLVIDHSIQVDFNR (UniProt P21399)” was -0.113.
For “ABCE1_P61221_38_LCIEVTPQSK (UniProt P61221)”, the “probe-labelled cysteine peptide fold change” value was -0.185.
With “ACAD9_Q9H845_507_TVDLGLTGNHGVVHPSLADSANKFEENTYCFGR (UniProt Q9H845)”, the “probe-labelled cysteine peptide fold change” value was -0.136.
With “ABCC4_O15439_1226_FAHCTVLTIAHR (UniProt O15439)”, the “probe-labelled cysteine peptide fold change” value is -0.12.
Under “ACLY_P53396_633_GVTIIGPATVGGIKPGCFK (UniProt P53396)” stands -0.00834; under “ACO2_Q99798_451_DLGGIVLANACGPCIGQWDR (UniProt Q99798)”, 0.131; under “ABCF3_Q9NUQ8_102_ITENYDCGTK (UniProt Q9NUQ8)”, -0.14.

The values above are taken from the supplement of paper PMC12067093, “Discovery and optimisation of a covalent ligand for TRIM25 and its application to targeted protein ubiquitination” (Chemical Science, 2025).
